From patent publication US20200369765A1
Where a chain is given by its changes, count along the chain named. Results are given in words; binding and its absence hold for the method and conditions named. Some results given as binding are weak or reduced against the parent protein; the word gives no strength.

Chains of the proteins cited; added tags and fusions are not shown. Lines headed by an entry give the natural chain unless they say otherwise; changes in a name come on top.
UniProt Q9Y336: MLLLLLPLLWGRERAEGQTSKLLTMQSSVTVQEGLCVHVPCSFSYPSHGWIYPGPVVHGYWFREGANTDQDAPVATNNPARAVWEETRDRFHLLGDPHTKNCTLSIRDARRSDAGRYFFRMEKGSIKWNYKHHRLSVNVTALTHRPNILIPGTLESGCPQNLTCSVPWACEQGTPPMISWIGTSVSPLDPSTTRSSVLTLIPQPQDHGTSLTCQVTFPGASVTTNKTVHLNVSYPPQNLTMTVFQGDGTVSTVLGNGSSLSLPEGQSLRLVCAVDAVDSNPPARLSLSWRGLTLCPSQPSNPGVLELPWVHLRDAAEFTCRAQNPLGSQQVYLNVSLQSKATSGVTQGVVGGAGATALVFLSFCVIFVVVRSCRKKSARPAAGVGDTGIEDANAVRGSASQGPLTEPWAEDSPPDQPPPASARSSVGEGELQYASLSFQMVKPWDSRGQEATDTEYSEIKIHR

B1: mAb1 (antibody, human IgG1, V domains shown)
VH: DVQLQESGPGLVKPSQSLSLTCTVTGYSITGGFAWNWIRQFPGNTLEWMGYIGYGGSTSYNPSLNSRISITRDTSKNHFFLQFNSVTTDDSATYYCARGDYLFAYWGQGTLVTVSA
VL: DIVMTQSHKFMSTSVGDRVSITCKASQDVNTAVAWYQQKPGQSPKLLIYSASYRYTGVPDRFTGSGSGTDFTFTISSVQAEDLAVYYCQQHYSTPRTFGGGTKLEIK
B2: mAb2 (antibody, human IgG1, V domains shown)
VH: B1 VH with D1E, D89E
VL: B1 VL
B3: mAb3 (antibody, human IgG1, V domains shown)
VH: B1 VH with D1E, Q5L, S7T, D89E
VL: DILMTQSPASLSASVGETVSITCRASGNIHNYLAWYLQRQGKSPQLLVYNAKTLADGVPSRFSGTGSGTQFSLKINSLQPEDFGSYYCQHFWSTPRTFGGGTKLEIK
B4: mAbA (antibody, human IgG1, V domains shown)
VH: QVQLQQPGAELVKPGSPVKLSCKASYFTFTSYWMHWVRQRPGQGLEWIGEINPSNGHTNYNEKFESKATLTVDRSSSTAYMQLSSLTSEDSAVFYCANGVESYDFDDALDYWGQGTSVTVSS
VL: DIQMTQTTSSLSASLGDRVTISCRASQDINNYLNWYQQKPDGTIKLLIYYTSRLHSGVPSRFSGSGSGTDYSLTINNLEQEDIATYFCQQGNTLPFTFGGGTKLEIK
B5: Fab.A (Fab of mAbA) (Fab, V domains shown)
VH: B4 VH
VL: B4 VL
B6: mAbB (antibody, human IgG1, V domains shown)
VH: QVQLQQPGAELVKPGASVKLSCKASVYTFTSYWMHWVKQRPGQGLEWIGEINPSNGHTNYNEKFKTKAKLTVDKSSSTAYMQLSSLTSEDSAVYFCANGVETYDFDDAMDYWGQGTSVTVSS
VL: B4 VL with I44V, Y50F, N76S, N92D, L94F
B7: Fab.B (Fab of mAbB) (Fab, V domains shown)
VH: B6 VH
VL: B4 VL with I44V, Y50F, N76S, N92D, L94F
B8: mAbC (antibody, human IgG1, V domains shown)
VH: QIQLVQSGPELKKPGETVKISCKASGYTFTNYEMNWVKEAPGKGLKWMGWINTYTGESTYADDFKGRFAFSLETSASTVYLQINNLKDEDVATYFCVRDDYGRSYGFAYWGQGTLVTVSA
VL: NIVLTQSPASLTVSLGQRANISCRASESVDSYGNSFMHWYQQKPGQPPKLLIYLASKLESGVPARFSGSGSRTDFTLTIDPVETDDAATYYCHQNNEDPPWTFGGGTKLEIK
B9: mAbD (antibody, human IgG1, V domains shown)
VH: QIQLVQSGPELKKPGETVKISCKASGYTFTDYSMHWVKQAPGKGLKWMGWIITETGEPTYADDFRGRFAFSLETSANTAYLQINNLKNEDTATYFCARDFDGYWGQGTTLTVSS
VL: DILMTQSPASLSASVGETVTITCRASENIYSYLAWYQQKRGKSPQFLVYNAKTLTEGVPSRFRGSGSGTQFSLKINSLQPEDFGTYYCQHHYGFPWTFGGGTKLEIK
B10: Fab.D (Fab of mAbD) (Fab, V domains shown)
VH: B9 VH
VL: B9 VL
B11: mAbE (antibody, human IgG1, V domains shown)
VH: DVQLVESGGGLVQPGGSRKLSCAASGFTFSTFGMHWVRQAPEKGLEWVAYISSGSNAIYYADTVKGRFTISRDNPKNTLFLQMTSLRSEDTAMYYCASPGYGAWFAYWGQGTLVTVSA
VL: ENVLTQSPAIMSASPGEKVTMTCRASSSVSSAYLHWYQQKSGASPKLWIYSTSNLASGVPARFSGSGSGTSYSLTISSVEAEDAATYYCQQYSAYPYTFGGGTKLEIK
B12: mAbF (antibody, human IgG1, V domains shown)
VH: QVQLQQSGPEVVRPGVSVKISCKGSGYTFTDYSMHWVKQSHAKSLEWIGVISTYNGNTNYNQKFKGKATMTVDKSSSTAYMELARLTSEDSAIYYCARRGYYGSSSWFGYWGQGTLVTVSA
VL: DIVMTQSQKFMSTSVGDRVSVTCKASQNVGTDVAWYQQKPGQSPEALIYSASYRYSGVPDRFTGSGSGADFTLTISNVQSEDLAEYFCQQYNSFPYTFGGGTKLEIK

Each binder was assayed against Human Siglec-9 mutant M1 (human) (UniProt Q9Y336) (assay: flow cytometry, HEK293T transfectants).

binding, binds:
B1
B2
B3
B4
B5
B6
B7
B8
B9
B10
B11
B12
